Experimental findings from paper doi:10.1101/2025.03.31.646376 are described below.

These are yes or no findings as the source states them, for the method shown. In cells and extracts the contact can be indirect. Some results given as binding are weak or reduced against the parent protein; the word gives no strength. Tags and fused reporters may be left off the sequences shown.

In the test the target is T1, 3x-Flag-tagged E193Q Msp1 (S. cerevisiae) (UniProt P28737).
T1 sequence: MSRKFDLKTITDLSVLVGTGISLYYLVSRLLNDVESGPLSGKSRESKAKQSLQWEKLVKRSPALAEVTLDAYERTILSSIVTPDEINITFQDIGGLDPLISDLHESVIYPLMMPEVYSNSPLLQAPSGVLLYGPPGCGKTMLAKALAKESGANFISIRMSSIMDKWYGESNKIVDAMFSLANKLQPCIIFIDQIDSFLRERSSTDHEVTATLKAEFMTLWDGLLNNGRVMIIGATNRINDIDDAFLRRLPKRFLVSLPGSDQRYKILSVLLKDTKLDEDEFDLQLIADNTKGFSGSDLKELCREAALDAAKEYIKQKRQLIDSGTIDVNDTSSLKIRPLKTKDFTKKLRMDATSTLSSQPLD
The test is described as follows: co-IP.

B1: 2x-HA-tagged Phb1 (protein, UniProt P40961 1-287)
chain: MSNSAKLIDVITKVALPIGIIASGIQYSMYDVKGGSRGVIFDRINGVKQQVVGEGTHFLVPWLQKAIIYDVRTKPKSIATNTGTKDLQMVSLTLRVLHRPEVLQLPAIYQNLGLDYDERVLPSIGNEVLKSIVAQFDAAELITQREIISQKIRKELSTRANEFGIKLEDVSITHMTFGPEFTKAVEQKQIAQQDAERAKFLVEKAEQERQASVIRAEGEAESAEFISKALAKVGDGLLLIRRLEASKDIAQTLANSSNVVYLPSQHSGGGNSESSGSPNSLLLNIGR
Turning to B1, the binding entry was “binds”.

B2: 2x-HA-tagged Ost4 (peptide, UniProt Q99380 1-36)
chain: MISDEQLNSLAITFGIVMMTLIVIYHAVDSTMSPKN
As for B2, the binding result was “binds”.
